Source: PMC4129439 (eLife, 2014)

Test system: serum SAA
Assay: LC-MS/MS of retinoids in SAA-enriched serum fraction after S. typhimurium infection
Design: species or system mouse
Conditions: 24 hr after intraperitoneal S. typhimurium

SMILES | detection in the SAA-enriched serum fraction (wild-type mice) | detection in the equivalent serum fraction (Saa1/2−/− mice)
CC1=C(/C=C/C(C)=C/C=C/C(C)=C/C(=O)O)C(C)(C)CCC1 [retinoic acid] | not detected | 
CC1=C(/C=C/C(C)=C/C=C/C(C)=C/CO)C(C)(C)CCC1 [retinol] |  | not detected
